The values below come from PubChem BioAssay AID602441 (National Center for Advancing Translational Sciences (NCATS), 2012).

Out of some 1,300 compounds screened, fewer than 10 were called active. Not shown: some 9% with an inconclusive outcome. The call rests on the fitted dose curve; in most records, active means well fitted curve in the direction sought with a large enough effect; inconclusive means small, poorly fitted or top-dose-only effect, or another doubt; inactive means no such curve, though single readings can be large or run the other way. The list shows a part of the results.

A short description of this assay: qHTS for antagonists of the Thyroid Stimulation Hormone Receptor: Hit Validation in Parental Cell Line. Further: 0% is about no effect. To be noted: parental HEK293 cells lacking TSHR, counter-screen; series mostly up to 56.9 µM; activity change, negative = inhibition: at the top concentration. The source says:
The thyroid-stimulating hormone receptor (TSHR) is a member of the 7 trans-membrane-spanning receptor (7TMR) family of cell surface receptors. TSHR-mediated hyperthyroidism is important in thyroid pathology. The development of small molecule antagonists of TSHR may lead to therapeutic approaches for TSHR-mediated hyperthyroidism caused by constitutively activating mutations or stimulating auto-antibodies associated with Graves' disease. Graves' disease is the leading cause of hyperthyroidism and is caused by autoantibodies that stimulate TSHR (TsAbs) causing thyroid growth and unregulated overproduction of thyroid hormones and existing treatments have liabilities (agranulocytosis). In addition, TSHRs are known to be expressed in multiple extrathyroidal tissues including bone, brain, kidney, testis, fat and cells of the immune system but the role of the TSHR in these tissues is not clear. Therefore, TSHR antagonists/inverse agonists could be used as probes of extrathyroidal TSHR function. Finally, TSHR inverse agonists, which are a subclass of antagonists that inhibit agonist-independent (or basal or constitutive) TSHR signaling, could be used to inhibit TSH-independent signaling in patients with recurrent or metastatic thyroid cancer who are receiving thyroid hormone to suppress TSH.
In collaboration between scientist from the NCGC and the NIDDK, a miniaturized HTRF high-throughput screen was developed. It's a cell based assay, where an anti cAMP antibody contains a fluorescent cryptate tag (excitation 337 nm; emission 620 nm) and the acceptor is cAMP-d2 (excitation 620 nm; emission 665 nm). When antibody and cAMP-d2 interact and are excited by a 337 nm light, a FRET occurs resulting in emission at 665 nm. The assay is competition between cAMP-d2 and cAMP (from the cell lysate). The homogeneous protocol allows for one step dispense after stimulation that is automation friendly. This is a hit validation assay in a counterscreen using parental HEK 293 cells lines.
NIH Chemical Genomics Center [NCGC]
NIH Molecular Libraries Probe Centers Network [MLPCN]
Assay Provider: Marvin Gershengorn, NIDDK
An anti cAMP antibody contains a fluorescent cryptate tag (excitation 337 nm; emission 620 nm) and the acceptor is cAMP-d2 (excitation 620 nm; emission 665 nm). When antibody and cAMP-d2 interact and are excited by a 337 nm light, a FRET occurs resulting in emission at 665 nm. The assay is competition between cAMP-d2 and cAMP (from the cell lysate). The homogeneous protocol allows for one step dispense after stimulation that is automation friendly. This assay uses parental HEK-EM 293 cells
For orientation: Quantitative high-throughput screening tests each substance at several concentrations.
Consider `O=C(NCCCN1CCOCC1)c1ccc2c(c1)N(Cc1ccc(Cl)cc1)C(=O)c1ccccc1S2=O` (stereo unspecified), for which the “activity change, negative = inhibition” value is inactive: -3.57%. For the compound `O=S(=O)(Nc1cccc(-c2ccc(N3CCCCCC3)nn2)c1)c1ccc(F)cc1`, the “activity change, negative = inhibition” value was inactive: 3.38%. Turning to `CCCn1c(COc2ccccc2OC)nc2ccccc21`, the “activity change, negative = inhibition” value was inactive: 2.13%.

As for `CCc1ccc(NC(=O)c2nc(S(=O)(=O)Cc3ccccc3)ncc2Cl)cc1`, the “activity change, negative = inhibition” value was inactive: 4.16%. The same measure for `O=C(COCc1cc(-c2cccs2)on1)NC1CCCCC1`: inactive: 0.869%; for `CCOc1ccnc2c1c(=O)n(Cc1cc(OC)cc(OC)c1)c(=O)n2C`: inactive: 3.72%. Turning to `COc1ccc(NS(=O)(=O)c2ccc(N/N=C(\C)c3ccncc3)c([N+](=O)[O-])c2)cc1`, the “activity change, negative = inhibition” value is inactive: -6.85%.

As for `O=C(NCc1cccnc1)c1nc(-c2ccccc2)n(-c2ccccc2)n1`, the “activity change, negative = inhibition” value is inactive: -1.31%. As for `COc1ccc(CN(C)C(=O)COC(=O)c2ccc(-c3ccccc3)cc2)c(OC)c1OC`, the “activity change, negative = inhibition” value is inactive: -6.46%. Turning to `Cc1ccc(Oc2cc(NC(=O)CCCn3nc([N+](=O)[O-])cc3C)cc([N+](=O)[O-])c2)cc1`, the “activity change, negative = inhibition” value was inactive: -3.73%.

Consider `Cc1sc2ncn(CC(=O)NCCCC(=O)NCc3ccc(F)cc3)c(=O)c2c1C`, for which the “activity change, negative = inhibition” value is inactive: 1.93%.

Consider `CSCc1cc(N2CCOCC2)nc(SCc2ccc(Cl)cc2Cl)n1`, for which the “activity change, negative = inhibition” value is inactive: -1.36%. The same measure for `O=C(c1cccc(Cl)c1)N1CCN(Cc2ccc3c(c2)OCO3)CC1`: inactive: 3.11%. Regarding `O=C(CN1C(=O)c2ccccc2S1(=O)=O)NCCSCc1cccc(Cl)c1`, the “activity change, negative = inhibition” value is inactive: -1.03%.

Consider `CCOc1ccccc1-n1c(=S)sc2c(=O)n(-c3ccc(F)cc3)c(SCC(=O)O)nc21`, for which the “activity change, negative = inhibition” value was inactive: 3.25%. For the compound `Cc1sc2ncnc(N3CCN(CCOc4ccc(Cl)cc4)CC3)c2c1C`, the “activity change, negative = inhibition” value was inactive: 2.16%. As for `CCOC(=O)C1CCCN(S(=O)(=O)c2cnc(Cl)c(Br)c2)C1` (stereo unspecified), the figure is inactive: 2.51%; as for `COc1ccc(-c2ccc(SCc3ccccn3)nn2)cc1OC`, inactive: 5.18%; as for `CCOc1ccccc1NC(=O)c1nc(S(=O)(=O)Cc2cccc(C)c2)ncc1Cl`, inactive: -8.41%. `COc1ccc(-c2nnc(CSc3nc4ccccc4c(=O)n3CC3CCCO3)o2)cc1OC` (stereo unspecified): the “activity change, negative = inhibition” value was inactive: 1.83%. Take `COc1ccc(-n2nc(C(=O)NCC(=O)NCCCN3CCN(C)CC3)c3ccccc3c2=O)cc1`: the “activity change, negative = inhibition” value is inactive: 4.12%. Turning to `c1ccc2c(CSc3ncnc4nc[nH]c34)cccc2c1`, the “activity change, negative = inhibition” value is inactive: 3.53%.

As for `O=C(COC(=O)c1cc(S(=O)(=O)N2CCOCC2)c(Cl)cc1Cl)c1ccc[nH]1`, the “activity change, negative = inhibition” value was inactive: -6.75%. With `O=C1C=C(c2ccc(Cl)c(C(F)(F)F)c2)C[C@@H](c2ccc(F)cc2)C1`, the “activity change, negative = inhibition” value was inactive: -0.527%.

`C(=N\Nc1nc2ccccc2[nH]1)/c1ccncc1`: the “activity change, negative = inhibition” value is inactive: -5.98%. Consider `CCC(C)Sc1ccc(-c2nc3ccc(C)cn3c2NCc2ccccc2)cc1OC` (stereo unspecified), for which the “activity change, negative = inhibition” value is inactive: -12%. The same measure for `Cc1onc(-c2ccccc2Cl)c1C(=O)NC(=S)Nc1ccc(C(C)C)cc1`: inactive: 4.35%; for `COc1cccc(/C=N/NC(=O)C(=O)N2CCCC2)c1O`: inactive: 4.42%; for `CCOc1ccc(-n2c(SCC(=O)Nc3cc(C)on3)nc3c(c2=O)SCC3)cc1`: inactive: 0.0503%. As for `COc1cc(NC(=O)C(C)C)ccc1NC(=O)c1ccco1`, the figure is inactive: -2.25%. `CS(=O)(=O)N(CC(=O)N1CCOCC1)c1cccc(F)c1`: the “activity change, negative = inhibition” value was inactive: 4.72%.

As to `O=C(/C=C/c1ccco1)Nc1ccc(Oc2ccc(Cl)cc2)cc1`, the “activity change, negative = inhibition” value is inactive: -1.52%. For `O=C(Nc1ccc(N=Nc2ccccc2)cc1)c1ccccc1Cl`, the “activity change, negative = inhibition” value is inactive: -5.44%.

In the case of `COc1cc(NS(=O)(=O)c2ccc(C)cc2C)cc(OC)c1OC`, the “activity change, negative = inhibition” value is inactive: 1.77%. Consider `O=c1[nH]c(=O)c2nnc(N/N=C/c3ccccc3F)nc2[nH]1`, for which the “activity change, negative = inhibition” value is inactive: 2.3%. The same measure for `O=[N+]([O-])c1ccc(N2CCN(C(=S)NCc3ccc(Cl)cc3)CC2)cc1`: inactive: -3.57%; for `O=C(CSc1nc(-c2ccc(Cl)cc2)cs1)Nc1cccc([N+](=O)[O-])c1`: inactive: -11.1%. Take `COc1ccccc1NC(=O)c1nc(S(=O)(=O)Cc2ccccc2)ncc1Cl`: the “activity change, negative = inhibition” value is inactive: -5.56%. For `O=C(Nn1cnnc1)C(c1ccccc1)c1ccccc1`, the “activity change, negative = inhibition” value was inactive: 6.14%.

With `O=C(CN1C(=O)NC2(CCCc3ccccc32)C1=O)N1CCN(c2cccc(C(F)(F)F)c2)CC1` (stereo unspecified), the “activity change, negative = inhibition” value was inactive: 3.09%.

Take `Cc1ccc(S(=O)(=O)N(Cc2ccccc2)c2ccccc2C(=O)N2CCCCC2)cc1`: the “activity change, negative = inhibition” value is inactive: -3.47%. `CCCCn1c(/N=C/c2ccccc2NS(=O)(=O)c2ccc(C)cc2)nc2ccccc21`: the “activity change, negative = inhibition” value is inactive: -2.31%. In the case of `Cc1ccc(CN2C(=O)c3ccccc3Sc3ccc(C(=O)NCCCN4CCOCC4)cc32)cc1`, the “activity change, negative = inhibition” value was inactive: -3.51%.

As to `Cc1cccc(OC2CCN(Cc3nc(CC4CC4)no3)CC2)c1`, the “activity change, negative = inhibition” value is inactive: 2.14%. Regarding `Nc1nc(SCC(=O)Nc2ccc([N+](=O)[O-])cc2)[nH]c(=O)c1NC(=O)c1ccc(Br)cc1`, the “activity change, negative = inhibition” value is inactive: -0.104%. Regarding `CCCn1nnc(NC(=O)C(C)Oc2ccc(Cl)cc2Cl)n1` (stereo unspecified), the “activity change, negative = inhibition” value was inactive: 0.679%. As to `Cc1ccc(-c2ccc(/C=N/N=C3/NC(=O)C(CC(=O)O)S3)o2)c([N+](=O)[O-])c1` (stereo unspecified), the “activity change, negative = inhibition” value was inactive: 2.07%. Regarding `CCn1nc([N+](=O)[O-])c(C(C#N)c2nc3cc(C(F)(F)F)ccc3s2)c(Cl)c1=O` (stereo unspecified), the “activity change, negative = inhibition” value was inactive: -1.01%.

Take `Cc1cc(C)n(C(=O)/C(C#N)=N/Nc2cc(Cl)cc(Cl)c2)n1`: the “activity change, negative = inhibition” value was inactive: 0.0538%. The same measure for `Cc1nn(CCCC(=O)Nc2cc(Oc3ccccc3)cc([N+](=O)[O-])c2)c(C)c1[N+](=O)[O-]`: inactive: -1.09%; for `COc1ccc(CN2CCCN(C)CC2)c(OC)c1C`: inactive: 0.262%.
